Assay [1] concerns the target HBH-ΔF508-CFTR-3HA (293MSR cells) (UniProt P13569). Put plainly: ELISA. On the technique in general: In an ELISA, binding on a coated surface is turned into a signal by an enzyme label.
In assay [2] the target is HBH-ΔF508-CFTR-3HA (BHK cells) (UniProt P13569). Put plainly: pull-down.
Assay [3] concerns the target HBH-ΔF508-CFTR-3HA (293MSR cells) (UniProt P13569). Put plainly: cross-linking + pull-down.
Assay [4] shares this target. Put plainly: cross-linking + pull-down. This is another data set of the same source.
Assay [5] deals with HBH-ΔF508-CFTR-3HA (BHK cells) (UniProt P13569). Put plainly: pull-down. This is another data set of the same source.

Protein sequences, listed by entry. Tags and fused reporters are not part of them. Lines headed by an entry give the natural chain unless they say otherwise; changes in a name come on top.
UniProt P13569, whole entry, looked up, stated change not applied: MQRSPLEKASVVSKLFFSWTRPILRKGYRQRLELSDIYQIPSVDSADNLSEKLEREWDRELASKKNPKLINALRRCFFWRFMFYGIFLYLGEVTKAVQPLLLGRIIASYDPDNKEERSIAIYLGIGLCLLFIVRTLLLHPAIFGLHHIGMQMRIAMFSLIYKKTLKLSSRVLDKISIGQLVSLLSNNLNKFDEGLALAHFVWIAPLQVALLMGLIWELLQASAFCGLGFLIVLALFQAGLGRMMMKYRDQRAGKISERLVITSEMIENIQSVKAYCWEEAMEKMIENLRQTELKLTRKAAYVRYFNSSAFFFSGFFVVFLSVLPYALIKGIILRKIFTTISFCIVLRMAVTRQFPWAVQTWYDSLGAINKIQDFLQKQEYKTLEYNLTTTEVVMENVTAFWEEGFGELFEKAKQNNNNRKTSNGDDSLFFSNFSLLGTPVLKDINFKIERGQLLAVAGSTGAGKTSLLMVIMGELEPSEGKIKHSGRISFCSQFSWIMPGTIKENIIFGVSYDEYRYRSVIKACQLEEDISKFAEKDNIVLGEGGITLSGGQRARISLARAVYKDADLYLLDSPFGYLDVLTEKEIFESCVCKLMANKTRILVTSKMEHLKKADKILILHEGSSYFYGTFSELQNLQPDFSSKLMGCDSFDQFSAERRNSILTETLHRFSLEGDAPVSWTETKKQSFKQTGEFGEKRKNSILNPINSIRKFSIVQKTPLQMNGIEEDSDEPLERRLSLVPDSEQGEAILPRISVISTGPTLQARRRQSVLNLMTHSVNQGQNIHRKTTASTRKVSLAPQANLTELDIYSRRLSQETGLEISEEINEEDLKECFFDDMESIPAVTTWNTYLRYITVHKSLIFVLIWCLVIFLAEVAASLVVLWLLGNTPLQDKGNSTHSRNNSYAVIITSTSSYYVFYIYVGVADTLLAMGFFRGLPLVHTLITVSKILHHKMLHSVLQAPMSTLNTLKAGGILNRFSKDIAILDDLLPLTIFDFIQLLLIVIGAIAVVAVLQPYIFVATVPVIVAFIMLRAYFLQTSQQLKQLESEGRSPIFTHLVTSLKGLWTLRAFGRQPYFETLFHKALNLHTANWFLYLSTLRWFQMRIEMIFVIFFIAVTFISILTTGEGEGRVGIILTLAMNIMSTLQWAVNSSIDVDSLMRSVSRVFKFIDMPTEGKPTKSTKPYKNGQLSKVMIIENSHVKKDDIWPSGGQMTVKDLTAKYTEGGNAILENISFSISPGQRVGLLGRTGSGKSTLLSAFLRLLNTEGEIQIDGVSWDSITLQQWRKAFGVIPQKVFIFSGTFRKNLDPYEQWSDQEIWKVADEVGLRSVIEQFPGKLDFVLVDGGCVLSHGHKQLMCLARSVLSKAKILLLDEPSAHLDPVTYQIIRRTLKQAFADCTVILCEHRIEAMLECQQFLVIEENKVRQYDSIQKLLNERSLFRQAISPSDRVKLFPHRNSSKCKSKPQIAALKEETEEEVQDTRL
UniProt Q9UHD9, whole entry: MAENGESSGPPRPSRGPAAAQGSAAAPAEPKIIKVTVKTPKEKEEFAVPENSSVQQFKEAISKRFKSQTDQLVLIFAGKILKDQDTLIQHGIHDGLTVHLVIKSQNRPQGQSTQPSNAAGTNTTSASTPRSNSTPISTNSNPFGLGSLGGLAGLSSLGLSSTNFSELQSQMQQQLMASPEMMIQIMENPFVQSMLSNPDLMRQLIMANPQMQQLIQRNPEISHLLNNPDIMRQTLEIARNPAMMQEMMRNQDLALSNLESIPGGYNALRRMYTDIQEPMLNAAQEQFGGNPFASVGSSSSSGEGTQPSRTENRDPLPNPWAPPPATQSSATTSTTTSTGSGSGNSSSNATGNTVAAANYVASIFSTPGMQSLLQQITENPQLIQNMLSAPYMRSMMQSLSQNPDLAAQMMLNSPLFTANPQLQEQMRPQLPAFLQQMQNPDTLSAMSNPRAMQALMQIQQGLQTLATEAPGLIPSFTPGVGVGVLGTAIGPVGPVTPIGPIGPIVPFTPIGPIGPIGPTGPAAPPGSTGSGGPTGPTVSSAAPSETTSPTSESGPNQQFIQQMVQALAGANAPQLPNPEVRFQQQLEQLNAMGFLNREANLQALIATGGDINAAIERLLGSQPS

Where two headings read alike, the source gives them in different places. No constants are given. Whether binding was seen depends on the method and setting. For some assays here: Binding seen in cells or lysates may run through a third protein. Some entries that bind do so weakly or less than the wild type. For some assays here: Sequences can lack the tags named with a protein.

Consider “FLAG-UBQLN2 (293MSR cells) (from UniProt Q9UHD9 1-624)”, for which the binding entry in assay [1] is on record as “binds”.

For “FLAG-UBQLN2 (BHK cells) (from UniProt Q9UHD9 1-624)”, the binding entry in assay [2] is on record as “binds”.

Turning to “endogenous UBQLN2 (from UniProt Q9UHD9 1-624)”, the binding entry in assay [3] was “binds weakly”; in assay [4], “binds”.

B1: Myc-HERC3 (enzyme, UniProt Q15034 1-1050)
chain: MLCWGYWSLGQPGISTNLQGIVAEPQVCGFISDRSVKEVACGGNHSVFLLEDGEVYTCGLNTKGQLGHEREGNKPEQIGALADQHIIHVACGESHSLALSDRGQLFSWGAGSDGQLGLMTTEDSVAVPRLIQKLNQQTILQVSCGNWHCLALAADGQFFTWGKNSHGQLGLGKEFPSQASPQRVRSLEGIPLAQVAAGGAHSFALSLSGAVFGWGMNNAGQLGLSDEKDRESPCHVKLLRTQKVVYISCGEEHTAVLTKSGGVFTFGAGSCGQLGHDSMNDEVNPRRVLELMGSEVTQIACGRQHTLAFVPSSGLIYAFGCGARGQLGTGHTCNVKCPSPVKGYWAAHSGQLSARADRFKYHIVKQIFSGGDQTFVLCSKYENYSPAVDFRTMNQAHYTSLINDETIAVWRQKLSEHNNANTINGVVQILSSAACWNGSFLEKKIDEHFKTSPKIPGIDLNSTRVLFEKLMNSQHSMILEQILNSFESCLIPQLSSSPPDVEAMRIYLILPEFPLLQDSKYYITLTIPLAMAILRLDTNPSKVLDNWWSQVCPKYFMKLVNLYKGAVLYLLRGRKTFLIPVLFNNYITAALKLLEKLYKVNLKVKHVEYDTFYIPEISNLVDIQEDYLMWFLHQAGMKARPSIIQDTVTLCSYPFIFDAQAKTKMLQTDAELQMQVAVNGANLQNVFMLLTLEPLLARSPFLVLHVRRNNLVGDALRELSIHSDIDLKKPLKVIFDGEEAVDAGGVTKEFFLLLLKELLNPIYGMFTYYQDSNLLWFSDTCFVEHNWFHLIGITCGLAIYNSTVVDLHFPLALYKKLLNVKPGLEDLKELSPTEGRSLQELLDYPGEDVEETFCLNFTICRESYGVIEQKKLIPGGDNVTVCKDNRQEFVDAYVNYVFQISVHEWYTAFSSGFLKVCGGKVLELFQPSELRAMMVGNSNYNWEELEETAIYKGDYSATHPTVKLFWETFHEFPLEKKKKFLLFLTGSDRIPIYGMASLQIVIQSTASGEEYLPVAHTCYNLLDLPKYSSKEILSARLTQALDNYEGFSLA
For B1, in assay [5], the binding entry is reported as “binds”.

These data come from article doi:10.1101/2023.10.16.562477.
